At least one peptide structure holds a part that was inferred or is arguable (an end, a ring closure or a residue). Where no end group is shown, it is not given here.
Test system: cultured spinal neuronal cells
Assay: BrdU incorporation into cultured spinal neuronal cells, Cell Proliferation ELISA (Example 3)
Format: cell-based, rat
Details: for BrdU incorporation into the cells (in words): 0.03 to 3 nM; for BrdU incorporation into the cells, Mean: n 6, Control = 100.0
Excerpt: Embryos were extracted from a pregnant Wistar rat at day 16 by opening the abdomen under anesthesia. Spinal cords were collected from these embryos and subjected to papain digestion in Hank's balanced salt solution; as a result of subsequent mechanical separation by pipetting, a dispersion of fetal spinal nerve cells was obtained. After being filtered and centrifuged, the dispersed cells were suspended in a DMEM medium containing NaHCO3, 5% fetal bovine serum, penicillin (100 U/mL) and streptomycin (100 µg/mL), followed by plating onto laminin-coated 96-well multi-plates at 10^5 cells per well. After incubation for 4 days, 5-bromo-2'-deoxyuridine (BrdU) (10 µM) was added and incubation was conducted for 6 hours; further, rat des-acyl ghrelin, des-acyl ghrelin(1-5)-NH2 (GSSFL-NH2, SEQ ID NO:22), des-acyl ghrelin(1-7)-NH2 (GSSFLSP-NH2, SEQ ID NO:23) or des-acyl ghrelin(1-15)-NH2 (GSSFLSPEHQRVQQR-NH2, SEQ ID NO:24) was added in amounts of 0.03 - 3 nM and incubation was conducted for 12 hours before investigating the action of des-acyl ghrelin and its derivatives on BrdU incorporation.
After the end of incubation, the cells were recovered and using Cell Proliferation ELISA Kit (Roche Diagnostic GmbH, Mannheim, Germany), the amount of BrdU incorporation into the cells was measured to investigate the action for proliferating the spinal neuronal cells.

Compound	BrdU incorporation into the cells (in words)	BrdU incorporation into the cells, Mean (Concentration 0.03 nM)	BrdU incorporation into the cells, Mean (Concentration 0.3 nM)	BrdU incorporation into the cells, Mean (Concentration 3 nM)
CC(C)C[C@H](NC(=O)[C@H](Cc1ccccc1)NC(=O)[C@H](CO)NC(=O)[C@H](CO)NC(=O)CN)C(=O)N[C@@H](CO)C(=O)N1CCC[C@H]1C(N)=O [Desacyl-ghrelin (1-7)-NH 2, GSSFLSP-NH2]	increased markedly	106.8	111.1	106.4
GSSFLSPEHQRVQQR-NH2 [Desacyl-ghrelin (1-15)-NH 2, GSSFLSPEHQRVQQR-NH2]	increased markedly	97.6	113.2	117.6
GSSFL-NH2 [Desacyl-ghrelin (1-5)-NH 2, GSSFL-NH2]	–	105.8	110.6	113.5
